The filed quantity is “Percent Effect” (%). The controls that fix the scale are not given in the record; negative values are as filed. Compounds were drawn at random from those tested, without regard to their results. Two or more numbers in one place are separate tests of the same structure; such repeats can differ widely. A dash means the value is not listed here; it may have been measured.

Sequences of proteins named here, by UniProt entry; tags and fusion partners are left off.
UniProt I6X8D2, whole entry: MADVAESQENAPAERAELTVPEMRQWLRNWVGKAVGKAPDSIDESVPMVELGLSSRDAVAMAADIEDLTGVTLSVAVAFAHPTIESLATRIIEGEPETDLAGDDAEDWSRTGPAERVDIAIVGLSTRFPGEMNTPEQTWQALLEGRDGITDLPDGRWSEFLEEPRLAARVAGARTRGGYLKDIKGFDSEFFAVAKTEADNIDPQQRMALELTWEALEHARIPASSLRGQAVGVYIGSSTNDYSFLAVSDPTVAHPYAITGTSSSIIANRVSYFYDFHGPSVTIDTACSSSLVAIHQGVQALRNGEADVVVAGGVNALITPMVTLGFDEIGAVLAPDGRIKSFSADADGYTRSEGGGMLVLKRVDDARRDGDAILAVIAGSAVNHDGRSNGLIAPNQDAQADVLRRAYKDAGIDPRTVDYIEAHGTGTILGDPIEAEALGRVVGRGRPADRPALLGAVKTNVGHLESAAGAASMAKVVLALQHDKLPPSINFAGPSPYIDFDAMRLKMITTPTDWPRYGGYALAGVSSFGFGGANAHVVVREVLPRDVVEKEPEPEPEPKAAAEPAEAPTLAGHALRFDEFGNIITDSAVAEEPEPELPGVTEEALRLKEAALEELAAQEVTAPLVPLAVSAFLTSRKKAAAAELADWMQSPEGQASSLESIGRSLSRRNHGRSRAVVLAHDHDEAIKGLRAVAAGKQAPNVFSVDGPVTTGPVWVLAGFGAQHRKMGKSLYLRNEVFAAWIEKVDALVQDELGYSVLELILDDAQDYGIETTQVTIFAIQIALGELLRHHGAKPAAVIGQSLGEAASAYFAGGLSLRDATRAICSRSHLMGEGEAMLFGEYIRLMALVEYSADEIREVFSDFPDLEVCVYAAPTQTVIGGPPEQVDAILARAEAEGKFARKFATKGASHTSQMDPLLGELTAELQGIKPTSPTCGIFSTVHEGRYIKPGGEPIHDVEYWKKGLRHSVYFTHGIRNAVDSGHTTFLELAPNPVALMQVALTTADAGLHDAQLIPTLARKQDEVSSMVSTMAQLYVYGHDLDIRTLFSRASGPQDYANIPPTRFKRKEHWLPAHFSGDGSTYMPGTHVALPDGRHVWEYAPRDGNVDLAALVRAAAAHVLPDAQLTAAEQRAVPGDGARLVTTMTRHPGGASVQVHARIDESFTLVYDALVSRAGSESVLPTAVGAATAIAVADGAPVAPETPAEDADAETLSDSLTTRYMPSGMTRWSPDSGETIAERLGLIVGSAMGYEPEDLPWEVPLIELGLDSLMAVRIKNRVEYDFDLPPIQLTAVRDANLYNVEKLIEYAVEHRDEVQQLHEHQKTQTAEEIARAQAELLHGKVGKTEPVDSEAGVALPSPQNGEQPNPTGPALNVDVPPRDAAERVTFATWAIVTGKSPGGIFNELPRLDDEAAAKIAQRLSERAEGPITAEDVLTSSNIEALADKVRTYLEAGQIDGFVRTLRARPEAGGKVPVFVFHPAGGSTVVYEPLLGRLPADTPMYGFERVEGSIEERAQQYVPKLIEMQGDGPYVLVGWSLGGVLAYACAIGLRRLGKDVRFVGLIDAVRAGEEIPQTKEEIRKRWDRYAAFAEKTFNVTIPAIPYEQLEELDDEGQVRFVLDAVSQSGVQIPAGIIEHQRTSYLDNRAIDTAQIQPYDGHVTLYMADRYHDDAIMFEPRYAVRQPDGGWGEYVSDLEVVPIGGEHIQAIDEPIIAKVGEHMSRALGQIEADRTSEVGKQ
UniProt P9WNZ1, whole entry: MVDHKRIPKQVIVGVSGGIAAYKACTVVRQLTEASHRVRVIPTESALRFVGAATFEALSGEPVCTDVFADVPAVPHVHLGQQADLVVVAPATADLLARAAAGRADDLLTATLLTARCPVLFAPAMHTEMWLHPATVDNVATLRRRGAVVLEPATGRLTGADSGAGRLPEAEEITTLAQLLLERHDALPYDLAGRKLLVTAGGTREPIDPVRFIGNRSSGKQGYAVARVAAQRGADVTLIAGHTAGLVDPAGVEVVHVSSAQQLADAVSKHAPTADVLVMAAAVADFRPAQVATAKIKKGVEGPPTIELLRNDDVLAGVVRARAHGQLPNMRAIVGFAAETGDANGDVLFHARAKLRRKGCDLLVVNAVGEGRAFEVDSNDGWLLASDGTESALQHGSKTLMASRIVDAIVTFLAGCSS
UniProt P9WFT3, whole entry: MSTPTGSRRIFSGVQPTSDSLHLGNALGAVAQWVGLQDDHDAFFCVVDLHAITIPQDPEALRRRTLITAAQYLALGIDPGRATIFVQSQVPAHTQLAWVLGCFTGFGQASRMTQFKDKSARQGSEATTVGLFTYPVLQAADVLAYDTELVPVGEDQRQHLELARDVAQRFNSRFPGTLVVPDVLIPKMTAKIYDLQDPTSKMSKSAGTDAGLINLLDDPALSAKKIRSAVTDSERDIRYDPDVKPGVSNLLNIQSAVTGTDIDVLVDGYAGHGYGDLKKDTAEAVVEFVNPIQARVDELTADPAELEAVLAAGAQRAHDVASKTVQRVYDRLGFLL

A: 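Enzyme assay of the thioesterase domain of polyketide synthase 13; the read-out is not stated. Target: Polyketide synthase Pks13, Mycobacterium tuberculosis (UniProt I6X8D2). Tested at 30 µM. The record gives no direction; the compounds picked for IC50 retests had high values, so higher reads as stronger inhibition. Size under these conditions: about 67,000 compounds, about 300 of them at 50% or above in at least one test.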
B: 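Coenzyme A biosynthesis protein CoaBC, Mycobacterium tuberculosis (UniProt P9WNZ1). Enzyme assay of CoaBC with a phosphate dye (Biomol Green) read at 650 nm. Compounds at 30 µM. Direction is inferred from only a few compounds that gave an IC50; most scored high, so higher reads as stronger inhibition. Most strong results did not repeat in a second test. Of about 67,000 compounds tested this way, about 40 (0.06%) reached 50% or more in at least one test.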
C: 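Cell assay of Leishmania donovani living inside macrophages; the read-out is not stated. Compounds at 30 µM. Higher reads as stronger inhibition (inferred: compounds with an IC50 in retests scored well above the rest). Of about 69,000 compounds tested this way, about 1,000 (1.5%) reached 50% or more in at least one test.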
D: 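Tryptophan-tRNA ligase, Mycobacterium tuberculosis (UniProt P9WFT3). Enzyme assay of tryptophanyl-tRNA synthetase; the read-out is not stated. Tested at 10 µM. Direction is not recorded; retested compounds ran higher, which suggests that high means inhibition. About 65,000 compounds were tested under these conditions; 0.098% (about 64) showed 50% or more at least once.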

Result for O=C(CC1CC1)N1CCc2ncc(Cn3cncn3)n2CC1.O=C(O)C(F)(F)F was C: 9.914%.
Result for Cc1cc(C(=O)N2CCn3cnc(COCC4CC4)c3C2)no1 was A: -10.23%; B: 1.895%; C: -2.299% and 0.9792%; D: -2.151%.
Result for CC1=N[C@@]2(CC[C@@H]3CN(Cc4ccccc4)C[C@@H]32)C(=O)N1CC1CC1 was A: -24.44%; B: 6.824%; D: -4.146%.
Result for N#Cc1cccc(CN2CCC3(CC2)CC(c2ccncc2)C(=O)N3)c1.O=C(O)C(F)(F)F.O=C(O)C(F)(F)F (stereo not drawn) was C: 13.71%.
Result for CCn1ncc(CN2CCC(c3ncc(Cl)cc3S(C)(=O)=O)CC2)c1C was A: -3.299%; B: -9.927%; C: 22.65%; D: -1.24%.
Result for COCc1ccccc1C(=O)N1CCCC1Cn1nc(C)cc1C (stereo not drawn) was A: -8.393%; B: 8.842%; C: -2.852%; D: 1.161%.
Result for O=C(COCC(=O)N1CCCCCC1)NCc1cccc(Br)c1 was A: -6.876%; B: -10.98%; C: 21.51%; D: 2.943%.
Result for Cc1cnc(N(C)Cc2cnc3ccccc3n2)nc1N(C)C was A: -18.31%; B: 5.275%; C: 7.505%; D: -0.9167%.
Result for CC(C)c1ccc(CN2CCC3(CCCN(c4nncs4)C3)C2)cc1 (stereo not drawn) was A: -18.68%; B: -43.17%; D: 2.515%.
Result for CCN1CCC(N2C[C@H]3OC(=O)N(CCc4cccc(Cl)c4)[C@H]3C2)CC1 was A: -27.5%; B: -2.571%; D: 5.093%.
Result for Cc1cnc2cc(C3CCN(C(=O)c4ccncc4)CC3)[nH]c2n1 was A: 19.11%; B: 1.112%; C: 4.962%; D: -6.118%.
Result for CCCn1ccc2ccc(NC(=O)N(C)CCOC)cc21 was A: -29.96%; B: 3.104%; C: 5.589%; D: -2.013%.
Result for Cn1nc(COc2cccnc2)c2c1CCN(c1ncccn1)C2 was A: -22.97%; B: 6.173%; C: 33.01%.
Result for COCc1cc(N(CC(F)F)C2CC2)n2ncnc2n1 was A: -19.28%; B: 7.739%; C: 13.05%; D: -5.847%.
Result for Cc1noc(C)c1C(=O)N1CCCC(c2c(C)c(=O)nc3n2CCC3)C1 (stereo not drawn) was A: 7.402%; B: 4.412%; C: 10.35%.
Result for O=C(O)C(F)(F)F.O=C(O)C(F)(F)F.[H][C@@]12C[C@H](C(=O)NCC3CC3)N(C)[C@]1([H])CN(Cc1cccc(C#N)c1)C2 was C: 13.09%.
Result for Fc1cccc(-c2c[nH]c([C@@H]3COCCN3C3CCOCC3)n2)c1 was A: -15.88%; B: 3.837%; C: -1.947%; D: -2.033%.
Result for CS(=O)(=O)NCC1CCCN(Cc2ccccc2F)C1 (stereo not drawn) was A: -35.93%; B: -1.146%; C: 20.51%; D: -3.783%.
Result for CN(C)S(=O)(=O)N1CCCC(c2cccc(Cc3ccc(Cl)cc3)n2)C1 (stereo not drawn) was A: -50.15%; B: 2.427%; C: 22.07% and 0.2917%.
Result for CC(C)n1ccnc1CN1CCOC(CCc2ccccc2)C1 (stereo not drawn) was A: 2.923%; B: -0.4673%; C: 3.142%; D: -4.503%.
Result for O=C(c1cn(CCN2CCCCC2)nn1)N1CCCO1 was A: -23.3%; B: -3.614%; C: 20.39%; D: -2.275%.
Result for Cc1csc(NC(=O)c2cnc(C3CCNCC3)cn2)n1.Cl was C: 16.08%.
Result for COc1ccc(CNC[C@H]2COCc3nc4cccnc4n32)cn1 was A: -36.94%; B: 7.097%; C: 28.82%; D: -0.8364%.
Result for c1cc(-c2nn3c(CN4CCOCC4)nnc3s2)ccn1 was A: -23.12%; B: 13.16%; C: 31.12%; D: 1.425%.
Result for Cc1nc(CN2C[C@@H](NC(=O)C3CCC3)[C@H]3COC[C@H]32)cs1 was A: -24.68%; B: -6.105%; D: -4.861%.
Result for Cc1ncsc1C(=O)N1CCCC(c2cc(C(F)F)n3ncnc3n2)C1 (stereo not drawn) was A: 23.58%; B: -1.471%; C: -12.97%.
Result for CCN(Cc1ccc2c(c1)OCO2)S(=O)(=O)N(C)C was A: -19.88%; B: 0.9558%; C: 10.39%; D: 3.626%.
Result for CC(C)=CCN1CCN(C(=O)C2CCS(=O)(=O)C2)CC1 (stereo not drawn) was A: 6.895%; B: 2.679%; C: -2.035%; D: 1.548%.
Result for CSc1nc(O)c(Cc2ccccc2)c(=O)n1-c1ccccc1 was A: -23.23%; B: 17.96%; C: 13.91%; D: -0.3137%.
Result for N#Cc1ccc(S(=O)(=O)NC(=O)COc2ccc3c(c2)CCC3)cc1 was A: -7.194%; B: 0.2632%; C: 4.11%; D: -6.952%.
Result for CC(C)S(=O)(=O)CCN1CCN(C(C#N)c2ccccc2)CC1 (stereo not drawn) was A: 0.2262%; B: -2.795%; C: 27.38%; D: -2.733%.

For reference, 2 entries once more:

| compound | A | B | C | D |
|---|---|---|---|---|
| `O=C(CC1CC1)N1CCc2ncc(Cn3cncn3)n2CC1.O=C(O)C(F)(F)F` | - | - | 9.914% | - |
| `COCc1ccccc1C(=O)N1CCCC1Cn1nc(C)cc1C` (stereo not drawn) | -8.393% | 8.842% | -2.852% | 1.161% |

Data taken from ChEMBL document CHEMBL3988442, “University of Dundee, Small-Polar-MMV Screening Library” (2021).